From patent publication EP4610277A1 (Daiichi Sankyo Company, Limited, dated 2025)

Assays:
Assay in all cases: flow cytometry, KIR-Fc on scFv-K562 cells
[1] = biological target: T1, recombinant KIR2DS1 (extracellular domain-Fc-Avi, in-house) (human)
T1 construct: In-house; IL-2 signal peptide left out; also called soluble KIR2DS1

[2] = biological target: T2, recombinant KIR2DS2 (extracellular domain-Fc-Avi, in-house) (human)
T2 construct: In-house; IL-2 signal peptide left out; also called soluble KIR2DS2

[3] = biological target: T3, recombinant KIR2DS4 (extracellular domain-Fc-Avi, in-house) (human)
T3 construct: In-house; IL-2 signal peptide left out; also called soluble KIR2DS4

binding result [1]: no binding (tested: 0.1 µM) | binding result [2]: no binding (tested: 0.1 µM) | binding result [3]: no binding (tested: 0.1 µM)
B1: membrane-type a2DL2/3-DS11 scFv (scFv)
scFv: DYKDDDDKGSGQVQLVQSGAEVKKPGSSVKVSCKASGGTFSSYAISWVRQAPGQGLEWMGGIIPIFGTANYAQKFQGRVTITADESTSTAYMELSSLRSEDTAVYYCARLVSSGWYDPSDYWGQGTTVTVSSGGGGSGGGGSGGGGSQSVLTQPPSASGTPGQRVTISCSGSSSNIGSNTVNWYQQLPGTAPKLLIYSNNQRPSGVPDRFSGSKSGTSASLAISGLQSEDEADYYCLTWDDSLTAFVFGTGTKLTVLALSNSIMYFSHFVPVFLPAKPTTTPAPRPPTPAPTIASQPLSLRPEACRPAAGGAVHTRGLDFACDIYIWAPLAGTCGVLLLSLVITLYCNH
notes: On K562 cells
